Laboratory results reported in paper PMC11876615.

Sequences of proteins named here, by UniProt entry; tags and fusion partners are left off.
UniProt P19474: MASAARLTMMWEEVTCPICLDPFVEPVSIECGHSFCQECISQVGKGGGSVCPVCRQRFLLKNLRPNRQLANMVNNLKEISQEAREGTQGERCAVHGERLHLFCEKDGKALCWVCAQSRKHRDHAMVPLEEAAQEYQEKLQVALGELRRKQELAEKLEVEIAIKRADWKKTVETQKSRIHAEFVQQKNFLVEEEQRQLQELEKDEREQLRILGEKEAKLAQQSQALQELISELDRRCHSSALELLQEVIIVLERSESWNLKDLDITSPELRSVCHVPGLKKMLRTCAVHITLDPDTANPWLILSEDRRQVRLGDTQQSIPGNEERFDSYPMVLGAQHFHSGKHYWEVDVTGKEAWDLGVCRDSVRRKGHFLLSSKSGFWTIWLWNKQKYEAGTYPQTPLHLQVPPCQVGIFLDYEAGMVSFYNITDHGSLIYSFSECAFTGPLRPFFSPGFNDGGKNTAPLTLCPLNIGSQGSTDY

Target: T1, Flag-tagged hSPAR (human small regulatory polypeptide of amino acid response) (human)
T1 sequence: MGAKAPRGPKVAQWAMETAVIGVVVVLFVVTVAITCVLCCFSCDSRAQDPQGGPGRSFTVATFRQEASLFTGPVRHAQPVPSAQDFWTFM
Assay: affinity purification with mass spectrometry; hSPAR Co-IP from MDA-MB-231 cells; samples resolved by SDS-PAGE, silver stained, bands uniquely present in the hSPAR Co-IP excised and analysed by mass spectrometry

Tripartite motif-containing 21 (TRIM21) (from UniProt P19474 1-475)
binding: binds

No constants are given. Whether binding was seen depends on the method and setting. In cells and extracts the contact can be indirect. These calls come from enrichment with a bait or labelling near it, and not all partners need be listed. Where a sequence is shown, tags or fusion partners need not be part of it.
